No constants are given. Whether binding was seen depends on the method and setting.
Target: Plasmodium falciparum vacuolar iron transporter homologue PfVIT (Plasmodium falciparum 3D7) (UniProt Q8I5I0)
Assay: SEC; Superdex 200 10/300 GL; 50 mM Tris-HCl pH 8.0, 300 mM NaCl, 10 mM imidazole, 5% v/v glycerol, 1 mM DTT, 0.1% w/v FC-12; 4 °C; elution volume compared with monomeric membrane proteins GlpT (53 kDa, 11.6 ml) and MdtM (45 kDa, 12.0 ml) on the same column; both purified

B1: Plasmodium falciparum vacuolar iron transporter homologue PfVIT (protein, UniProt Q8I5I0 1-273)
chain: MVSKKTIEARKAYYNEDVVLSKEAHDFYHNLDKHGENHNLDKDNLKTIIFGSLDGIITIFAIVSGCVGAKITPTQVIIIGIGNLFANAISMGFSEYTSSTAQRDFMLAEKKREEWEIENCPSEEKQEMIDIYMNKYKFDSEDARNLVEITFRNKNFFLEHMMSEELGLIVTNEDKNECLKKGIIMFLSFAVFGIIPLSAYVAYTVFFGYTDYTTSFLVVFISTLTTLFILGLFKSQFTNQKPITCALYMVLNGMIAGMVPFLLGVVLKNNISE
B1 was tested, and the binding was “no binding”.
